Measurements taken from publication PMC4458873.
Results are given in words; binding and its absence hold for the method and conditions named. In cells and extracts the contact can be indirect. Some entries that bind do so weakly or less than the wild type.

Sequences of proteins named here, by UniProt entry; tags and fusion partners are left off.
UniProt P08670: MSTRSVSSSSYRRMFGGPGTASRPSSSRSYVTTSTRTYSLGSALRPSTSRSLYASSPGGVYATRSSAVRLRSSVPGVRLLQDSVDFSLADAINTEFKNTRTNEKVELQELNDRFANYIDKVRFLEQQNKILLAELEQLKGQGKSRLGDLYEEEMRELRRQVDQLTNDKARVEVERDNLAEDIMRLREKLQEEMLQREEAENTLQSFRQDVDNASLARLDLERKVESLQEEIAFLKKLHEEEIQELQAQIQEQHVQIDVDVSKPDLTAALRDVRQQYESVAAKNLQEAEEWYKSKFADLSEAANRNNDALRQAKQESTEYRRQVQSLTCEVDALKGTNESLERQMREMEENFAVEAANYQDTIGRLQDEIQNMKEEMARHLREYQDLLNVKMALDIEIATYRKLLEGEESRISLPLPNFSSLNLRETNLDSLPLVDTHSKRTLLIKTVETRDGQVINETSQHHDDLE

Molecular target: Untagged vimentin wt expressed from the bicistronic RFP//vimentin wt plasmid (UniProt P08670)
Assay: cross-linking; cells treated with vehicle or 100 μM dibromobimane (DBB) for 15 min, lysed, analysed by WB; where indicated vimentin immunoprecipitated with anti-vimentin V9 agarose

binding: binds
Substance: Untagged vimentin wt expressed from the bicistronic RFP//vimentin wt plasmid (from UniProt P08670 1-466)
